This is an account of results in publication PMC7819943, “Rice protein-binding microarrays: a tool to detect cis-acting elements near promoter regions in rice”.

Protein sequences, listed by entry. Tags and fused reporters are not part of them.
UniProt Q0JBA9, entry or part of it: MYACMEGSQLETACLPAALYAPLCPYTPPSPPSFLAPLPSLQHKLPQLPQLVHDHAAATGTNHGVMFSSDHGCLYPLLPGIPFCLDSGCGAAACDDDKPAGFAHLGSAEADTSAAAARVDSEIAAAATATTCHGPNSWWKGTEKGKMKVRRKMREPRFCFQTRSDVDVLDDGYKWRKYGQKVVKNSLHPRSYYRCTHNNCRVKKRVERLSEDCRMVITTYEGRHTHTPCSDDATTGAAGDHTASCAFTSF

The list shows a part of the results.

The target in the assay is OsWRKY34 (Oryza sativa, UniProt Q0JBA9 1-250). As to the kind of experiment: protein-binding microarray (RPBM); PBS, 2% BSA, 51.3 ng/ul salmon testes DNA, 50 uM zinc acetate, 200 nM TF, 25 C, 1 h; high values mean tight binding. Conditions: protein: recombinant; tags: N-terminal polyhistidine and DsRed monomer fusion (pET32a); label: CyDye5-dUTP incorporated in the synthesized complementary strand; 3' TTTTT single-stranded linker to array surface; dsDNA, one strand shown. The gist of the method:
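Using Ni–NTA, transcription factors fused N-terminally to polyhistidine and DsRed were purified after expression in E. coli BL21-CodonPlus. These were incubated at 200 nM with a blocked, double-stranded custom Agilent array for 1 h at 25 °C in a buffer containing 50 µM zinc acetate, and the array was washed. The binding signal is per-feature fluorescence intensity (arbitrary units) on an Axon 4000B scanner.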
On to “GGTGACACACTCCAACTCCAACCACTCCCCATACAACCTACGGAGTCACCTAGTGCAG”, for which the binding signal was 8500 fluorescence intensity (a.u.).
As for “TAGGTTGTAAGGATGTATAGATTGAATTTAGTTTTGCATGCGGAGTCACCTAGTGCAG”, the binding signal is 8880 fluorescence intensity (a.u.).
Turning to “TGGTCTGCTCGTCGTCTTCGACTCTTCATCGCCACTCGCCCGGAGTCACCTAGTGCAG”, the binding signal was 9610 fluorescence intensity (a.u.).
In the case of “CCCTCAATCCAACGGCCCACGCTGCACTCCTCACCACTCACGGAGTCACCTAGTGCAG”, the binding signal was 9390 fluorescence intensity (a.u.).
Turning to “CCACTGGATCCATTTCAATTTTACCTAGCCATCGCTGCGGCGGAGTCACCTAGTGCAG”, the binding signal was 8640 fluorescence intensity (a.u.).
On to “TCCTCCGCCCTATTCGATCCCCTCCTCACCCCGCCGTTCTCGGAGTCACCTAGTGCAG”, for which the binding signal was 8800 fluorescence intensity (a.u.).
The figure for “TAGTTTCTTGTTTTCAGTTTTTTTTTCTTGTCATTTTTTTCGGAGTCACCTAGTGCAG” is 19500 fluorescence intensity (a.u.); for “ATTTCCCACTGCGTGATCCTGTTGCCTTTTTTAGAGCTCTCGGAGTCACCTAGTGCAG” it is 9070 fluorescence intensity (a.u.); for “TGAGAAAAAGTCAACGACGTCATCTATTAAAAAACGGAGGCGGAGTCACCTAGTGCAG” it is 11900 fluorescence intensity (a.u.).
The figure for “TCGCGATTTCTATGTAAACTGTGCAATTAGTTTTTTTATCCGGAGTCACCTAGTGCAG” is 8390 fluorescence intensity (a.u.).
Take “CTTGATGTCTCTGGCACTCTTGGCTCTGGCTGGTAGCTATCGGAGTCACCTAGTGCAG”: the binding signal was 9640 fluorescence intensity (a.u.).
The figure for “ATTTTGGACCAGAGATTCGGTATGCTGTTTCTTATGCGATCGGAGTCACCTAGTGCAG” is 9540 fluorescence intensity (a.u.); for “ACCCAATGACTTTAGGTGGCTGTGTTGTGTTCAGTGGATCCGGAGTCACCTAGTGCAG” it is 9510 fluorescence intensity (a.u.); for “AATTCTTATCTTTGTAACAGTGTTGTTTTTTTTTGGGTAACGGAGTCACCTAGTGCAG” it is 8380 fluorescence intensity (a.u.).
“TCCTAATAAGTACTTCATTCGTTTTATATTATAAGACTTTCGGAGTCACCTAGTGCAG”: the binding signal was 9710 fluorescence intensity (a.u.).
The figure for “TGGCAAAGTATCGTCCATCACATACAGTACACAACGATCCCGGAGTCACCTAGTGCAG” is 8110 fluorescence intensity (a.u.).
The figure for “GCCGCCTTTCGTTACCCACCAACCCAACCTCGTTCTACGGCGGAGTCACCTAGTGCAG” is 8980 fluorescence intensity (a.u.).
As to “ACGGGTGCTTGTATTTACAGCTAATTATTTTTTCAGTGGCCGGAGTCACCTAGTGCAG”, the binding signal was 8410 fluorescence intensity (a.u.).
On to “ACCTTCACTATTTTTTTTGATTTTTTTCTTTTTTTTTTAACGGAGTCACCTAGTGCAG”, for which the binding signal is 12200 fluorescence intensity (a.u.).
The figure for “ACTTTGATTGGGCTGGGTTCATATGAGATTAGGGGAAAAACGGAGTCACCTAGTGCAG” is 13500 fluorescence intensity (a.u.); for “ATTTTGCATGCCCGCTGTGTTCAAACTGACATATTGTCAACGGAGTCACCTAGTGCAG” it is 10100 fluorescence intensity (a.u.); for “GAGCAGCTTCGTCGTCGTCTTCGTTTCATCGCTTCTGCTCCGGAGTCACCTAGTGCAG” it is 11000 fluorescence intensity (a.u.).
To “CGTTTCAAAATATTTAACACCGTTGACTTTTTAGTACGTGCGGAGTCACCTAGTGCAG” belongs 31100 fluorescence intensity (a.u.).
Turning to “CCTTCACCTGGTAATCATTTCGATGCATTCATTTCCCTATCGGAGTCACCTAGTGCAG”, the binding signal is 8470 fluorescence intensity (a.u.).
Regarding “TCACCTCCTCTCTTTCTATCTCTCTCTCTCCACCACCTTTCGGAGTCACCTAGTGCAG”, the binding signal is 8340 fluorescence intensity (a.u.).
The figure for “GCTGGTATGCCTTGCATGCTCTCACGGTTACGTGCCGAGACGGAGTCACCTAGTGCAG” is 8570 fluorescence intensity (a.u.).
Take “TAAGACGTTTTGACTTTTTTTTTTCCTATTTAAACCTTTTCGGAGTCACCTAGTGCAG”: the binding signal was 13500 fluorescence intensity (a.u.).
To “AGCATTTTCCGCCCCAAATCTCGTCCTTGCTGCCCCGACTCGGAGTCACCTAGTGCAG” belongs 8650 fluorescence intensity (a.u.).
As for “GTCTAGAATGCATCACTTTGCTTTTGGCCAAGGTCATTTGCGGAGTCACCTAGTGCAG”, the binding signal was 8160 fluorescence intensity (a.u.).
For the sequence “CTTCTTCTTGTTGTTCTTGCTGTTCTTGTGGTTCTTGGCCCGGAGTCACCTAGTGCAG”, the binding signal was 11500 fluorescence intensity (a.u.).
In the case of “CAAGTCAACACCAACCAAACCCTAATTGCTTAGAGGACAACGGAGTCACCTAGTGCAG”, the binding signal was 8420 fluorescence intensity (a.u.).
On to “CTTCCCCATCTCCGCCGCCACCCCACCGTTTCTCTTCTTTCGGAGTCACCTAGTGCAG”, for which the binding signal is 9790 fluorescence intensity (a.u.).
To “GTCTCTCTTTTTTGTTATTTTATTTAAAACTAGCTATATCCGGAGTCACCTAGTGCAG” belongs 13300 fluorescence intensity (a.u.); to “CTACTTTGCCTACCTAGGCTGCCGCACTATATATAAATACCGGAGTCACCTAGTGCAG”, 8700 fluorescence intensity (a.u.).
For “TTTTTAGGCATTTTTAGGTGTTCTCCCATTTTTAGGTGCGCGGAGTCACCTAGTGCAG”, the binding signal is 9210 fluorescence intensity (a.u.).
On to “TCGTTCTACCAGTCAGCCCTAACAAACTTCCCGCCCACTCCGGAGTCACCTAGTGCAG”, for which the binding signal is 8330 fluorescence intensity (a.u.).
Take “GCACTGGGCGTTCCTACTATTCCACTCGCTCTAGTTTGCCCGGAGTCACCTAGTGCAG”: the binding signal was 10500 fluorescence intensity (a.u.).
The figure for “ATTACTTGTCGCTTTGACTTTTTGCTTAAAATGTTTGACCCGGAGTCACCTAGTGCAG” is 15800 fluorescence intensity (a.u.); for “GCTGCGTTTCGTTTCTCGGTCTCGCGCGCGTGGTGTCACGCGGAGTCACCTAGTGCAG” it is 9160 fluorescence intensity (a.u.); for “GAGGACTGGGGAGGGCGGGGAGAGGGGAGGGCGTCGCGTGCGGAGTCACCTAGTGCAG” it is 24500 fluorescence intensity (a.u.).
With “ATTCCTCGTTTTACGCGCGCACACTTTTTAAATTGCTAAACGGAGTCACCTAGTGCAG”, the binding signal was 10400 fluorescence intensity (a.u.).
Regarding “CTCCCTTCCTTATCCGTCCCGTCTCCTCGCGCTGCTAGCACGGAGTCACCTAGTGCAG”, the binding signal was 9330 fluorescence intensity (a.u.).
